# PubChem BioAssay AID1671190 (National Center for Advancing Translational Sciences (NCATS), 2021)
# Protein sequences, listed by entry. Tags and fused reporters are not part of them. Lines headed by an entry give the natural chain unless they say otherwise; changes in a name come on top.
# UniProt P18054: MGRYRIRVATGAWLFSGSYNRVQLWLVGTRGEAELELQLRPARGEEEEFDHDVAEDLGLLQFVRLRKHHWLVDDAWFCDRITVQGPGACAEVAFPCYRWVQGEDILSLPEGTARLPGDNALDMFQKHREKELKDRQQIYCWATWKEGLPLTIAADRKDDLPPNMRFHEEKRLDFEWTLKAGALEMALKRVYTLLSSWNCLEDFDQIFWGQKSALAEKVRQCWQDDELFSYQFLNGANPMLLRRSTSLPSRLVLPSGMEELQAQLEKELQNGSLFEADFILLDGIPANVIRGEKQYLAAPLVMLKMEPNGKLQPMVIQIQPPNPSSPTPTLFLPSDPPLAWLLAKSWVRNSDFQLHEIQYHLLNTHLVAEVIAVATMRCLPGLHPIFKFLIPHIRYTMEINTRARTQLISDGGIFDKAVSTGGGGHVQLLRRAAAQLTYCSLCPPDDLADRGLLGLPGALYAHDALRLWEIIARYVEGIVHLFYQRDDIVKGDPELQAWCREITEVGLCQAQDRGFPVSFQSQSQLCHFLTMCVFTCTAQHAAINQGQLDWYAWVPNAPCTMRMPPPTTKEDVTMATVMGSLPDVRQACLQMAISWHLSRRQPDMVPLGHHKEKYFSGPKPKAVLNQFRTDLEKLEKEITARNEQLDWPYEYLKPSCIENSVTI
# Among all 580,000 compounds or so, about 6,100 (1.1%) were called active. This list was built around the results that the source calls inconclusive (neither active nor inactive); the mix of calls is not that of the screen. Calls come from the whole dose curve; as a rule, active = well fitted inhibition curve with a large enough effect; inconclusive = small, poorly fitted or top-dose-only effect, or another doubt; inactive = no such curve, though single readings can be large or run the other way. Potencies beside an inconclusive call are fits to weak or partial responses and may not hold up. Some compounds were tested as several samples or in several runs, with calls that do not always agree.
# Biological target: Polyunsaturated fatty acid lipoxygenase ALOX12 (Homo sapiens) (UniProt P18054)
# Experiment: Primary qHTS assay for inhibitors of human arachidonate 12S-lipoxygenase (ALOX12): Round 2
# Settings: purified 12hLO, xylenol orange hydroperoxide absorbance; activity change, negative = inhibition: at 108 µM (top of the series) unless noted
# Summary of the method: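 Purified human 12hLO at 150 nM in 25 mM Hepes, 0.01% Triton X-100, pH 7.0, preincubated 15 min at room temperature with compound. Reaction started with 40 uM arachidonic acid, 30 min at room temperature. Hydroperoxide measured by Fe-xylenol orange, 573/405 nm absorbance ratio.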
# % is set by controls: 0 for no effect and ±100 for the full control effect; potency is the fitted concentration of half-maximal effect.
Compound,Potency,"activity change, negative = inhibition"
CNc1c(NC(=O)c2cccc(C)c2)c(=O)oc2ccccc12,"inconclusive: 31.6 µM [inhibitor, single point]",
O=C(NCCc1cccs1)C1CC=CCC1 (centres undefined),"inconclusive: 15.8 µM [inhibitor, partial curve, poor fit]",
Cc1cc(C)cc(Nc2nc(C)cc(=O)n2CC(=O)Nc2cccc(Br)c2)c1,"inconclusive: 31.6 µM [inhibitor, full curve, poor fit]",
COc1cccc(-c2cc3nc(NCc4ccccc4F)n(C)c(=O)c3s2)c1,"inconclusive: 89.1 µM [inhibitor, single point]",
COCCN(Cc1ccc(C)cc1)C(=O)[C@H]1O[C@@H](n2ccc(=O)[nH]c2=O)[C@H](O)[C@@H]1O,"inconclusive: 31.6 µM [inhibitor, single point]",
Cc1ccc(C2CC2C(=O)NNC(=S)Nc2ccc(Cl)cc2)cc1 (centres undefined),active: 44.7 µM,
Cc1cc(C)c(O)c(-c2n[nH]c3c2C(c2ccccc2F)N(CCO)C3=O)c1 (centres undefined),,inactive: 2.48%
O=C(O)CCC(=O)Nc1sc2c(c1C(=O)Nc1ccccc1)CCCCC2,active: 14.1 µM,
CS(=O)(=O)c1ccccc1C(=O)Nc1cccc2ncccc12,,inactive: -18.8%
Cc1ccc(CN2CCC3(CC2)COc2ccccc2CN3)cc1,,inactive: 15.6% [at 176 µM]
O=[N+]([O-])c1c(NCCCO)cc(SCc2ccco2)c2nonc12,"inconclusive: 44.7 µM [inhibitor, partial curve, poor fit]",
Cc1cc(C(=O)N2C[C@@H](COc3ccccc3)[C@H](C(N)=O)C2)no1,,inactive: 21.1%
C#CC(C)(CC)NC(=O)/C(=C/c1ccccc1)NC(=O)c1ccccc1 (centres undefined),"inconclusive: 100 µM [inhibitor, single point]",
COc1cc(C(=S)N2CCCC2)ccc1O,"inconclusive: 50.1 µM [inhibitor, partial curve, poor fit]",
COc1ccc([C@H]2CC(=O)C[C@@H](CCn3cc(-c4ccccn4)nn3)O2)cc1,"inconclusive: 50.1 µM [inhibitor, partial curve, poor fit]",
O=c1cc(CSc2n[nH]c(-c3ccccc3)n2)nc2sc3c(n12)CCCC3,,inactive: 31.2%
CCOc1c(Cl)cc(/C=C/C(=O)c2ccc(OC(F)F)cc2)cc1OC,"inconclusive: 22.4 µM [inhibitor, full curve, poor fit]",
Cc1ccccc1Cn1c(=O)n(CCC(=O)NCCc2ccc(Cl)cc2)c(=O)c2sccc21,"inconclusive: 100 µM [inhibitor, partial curve, poor fit]",
CSc1ccccc1C(=O)NC1CCCN(c2ccc(C(F)(F)F)cn2)C1 (centres undefined),"inconclusive: 50.1 µM [inhibitor, partial curve, poor fit]",
CC(C)C[C@H]1CNC(=S)N1CC1CCCN1C[C@H](CC(C)C)N1C[C@H](Cc2ccccc2)N(CC2CCCCCC2)C1=S (some centres undefined),"inconclusive: 44.7 µM [inhibitor, partial curve, poor fit]",
Cc1ccc(CN2CCCC(CNS(=O)(=O)C3CC3)C2)cc1C (centres undefined),,inactive: 47.5%
CC[C@@]1(C(=O)OC)N[C@H](CN(C)C(=O)c2ccccc2)[C@@H]2C(=O)N(C)C(=O)[C@@H]21,,inactive: -5.96%
O=C(c1ccc(Cl)cc1)c1c[nH]c(C(=O)NNc2ccccc2)c1,"inconclusive: 0.708 µM [inhibitor, full curve, poor fit]",

# Looked up one by one from the list above:
Compound,Potency,"activity change, negative = inhibition"
Cc1ccc(CN2CCCC(CNS(=O)(=O)C3CC3)C2)cc1C (centres undefined),,inactive: 47.5%
CC(C)C[C@H]1CNC(=S)N1CC1CCCN1C[C@H](CC(C)C)N1C[C@H](Cc2ccccc2)N(CC2CCCCCC2)C1=S (some centres undefined),"inconclusive: 44.7 µM [inhibitor, partial curve, poor fit]",
O=c1cc(CSc2n[nH]c(-c3ccccc3)n2)nc2sc3c(n12)CCCC3,,inactive: 31.2%
O=C(NCCc1cccs1)C1CC=CCC1 (centres undefined),"inconclusive: 15.8 µM [inhibitor, partial curve, poor fit]",
CC[C@@]1(C(=O)OC)N[C@H](CN(C)C(=O)c2ccccc2)[C@@H]2C(=O)N(C)C(=O)[C@@H]21,,inactive: -5.96%

# Next compounds:

Compound,Potency,"activity change, negative = inhibition"
NC(=O)c1ccc(NC(=O)C2CC(=O)N(c3ccc4c(c3)OCCO4)C2)cc1 (centres undefined),"inconclusive: 141 µM [inhibitor, single point]",
COc1ccccc1COCC(O)CN1CCN(S(=O)(=O)c2cccc(F)c2)CC1 (centres undefined),"inconclusive: 0.0398 µM [inhibitor, full curve, poor fit]",
CCOC(=O)C1(CCOc2ccccc2)CCN(CC2CC2)CC1,,inactive: -3.33%
COc1ccc(CSc2n[nH]c(C)n2)cc1[N+](=O)[O-],,inactive: -7.15%
CC(C)c1nc(C#N)c(NN)o1,,inactive: 0%
Cc1cccc(/C=N/n2c(-c3cc(-c4ccccc4)n[nH]3)n[nH]c2=S)c1,"inconclusive: 50.1 µM [inhibitor, partial curve, poor fit]",
NC(=S)NN=Cc1nccc2c(N)cccc12,"inconclusive: 44.7 µM [inhibitor, partial curve]",
CCOC(=O)c1c(S(=O)(=O)N2CCCC(C(=O)Nc3ccc(C)cn3)C2)c(C)n(C)c1C (centres undefined),inactive,
COc1ccc(C(=O)NNC(=O)C2CCCO2)cc1 (centres undefined),,inactive: -3.96%
O=C1NN(c2ccc(F)cc2)C(=O)/C1=C\C=C\c1ccco1,active: 44.7 µM,
COc1ccccc1NC(=S)NCC1CCCCC1,"inconclusive: 44.7 µM [inhibitor, partial curve]",
CC(C)c1cc(=O)oc2cc(OCC(=O)N3CCCCC3)ccc12,,inactive: 20.5%
O=C(Cc1ccc(Cl)cc1)N1CCC2(CC1)NC(=O)N(c1ccc(F)cc1)N2,active: 2.51 µM,
C=CCn1c(N)c(C(=O)NCc2ccco2)sc1=S,,inactive: -25.2%
O=C(Nc1ccc(OCC(=O)N2CCOCC2)cc1)c1ccccc1Cl,,inactive: 31.4%
CCc1nnc(NC(=O)c2cc(=O)c3cc(C)cc(C)c3o2)s1,"inconclusive: 10 µM [inhibitor, full curve, poor fit]",
O=C(/C=C/c1ccco1)NC1CCC(c2ccccc2)CC1 (centres undefined),active: 7.94 µM,
COc1cccc(C(=O)N2CCC3(CC2)NC(=O)N(c2cccc(F)c2)N3)c1,active: 2 µM,
CCN1CCN(Cc2ccc(NC(=O)c3ccc(C)c(NC(=O)c4cc(-c5ccc(Br)cc5)n[nH]4)c3)cc2C(F)(F)F)CC1,"inconclusive: 44.7 µM [inhibitor, partial curve, poor fit]",
O=[N+]([O-])c1ccc(CNC2CCCc3ccccc32)cc1 (centres undefined),"inconclusive: 1.26 µM [inhibitor, full curve, poor fit]",
CC(C)(C)OC(=O)NCc1ccc(C(=O)O)cc1,,inactive: 0.958%
N#CC(c1nc2ccccc2nc1N1CCCC1)S(=O)(=O)c1cccs1 (centres undefined),"inconclusive: 1 µM [inhibitor, full curve, poor fit]",
Cc1ccc(Cn2c(Sc3ncccn3)nc3c2c(=O)[nH]c(=O)n3C)cc1,"inconclusive: 44.7 µM [inhibitor, single point]",

Compound,Potency,"activity change, negative = inhibition"
O=C(Nc1ccc2c(c1)CCCN2C(=O)c1cccs1)c1ccccc1,inactive,
Cc1ccccc1NC(=O)Cc1nc(COC(=O)c2ccc(O)cc2O)cs1,"inconclusive: 35.5 µM [inhibitor, partial curve]",
COc1ccc(C(=O)c2c3ccc(C(F)(F)F)cc3[n+]([O-])n2CCCN)cc1,,inactive: -8.23%
COC(=O)c1c(SCC(=O)NC2CCCCC2)[nH]c2ccccc2c1=O,"inconclusive: 28.2 µM [inhibitor, partial curve, poor fit]",
Cc1cc(C)cc(NC(=O)Nc2ccc3nc(N4CCN(C)CC4)cc(C)c3c2)c1,"inconclusive: 79.4 µM [inhibitor, partial curve, poor fit]",
O=C(NC1CCCCC1)N1Cc2[nH]cnc2C[C@H]1c1nc(-c2ccc(F)c(Cl)c2)no1,"inconclusive: 15.8 µM [inhibitor, full curve]",
CCC(C)NC(=O)C(NC(=O)c1ccccc1C)C1CCN(C(=O)c2ccc(Cl)cc2)CC1 (centres undefined),"inconclusive: 31.6 µM [inhibitor, full curve, poor fit]",
COc1ccc(NC(=O)c2cccc(-n3cccc3)c2)c(OC)c1,"inconclusive: 39.8 µM [inhibitor, partial curve, poor fit]",
CCOc1ccc(NC(=O)Cn2ccn3nc(-c4ccc(OC)c(OC)c4)cc3c2=O)cc1,"inconclusive: 126 µM [inhibitor, partial curve, poor fit]",
CN(C)CCNC(=O)CCC(=O)O,,inactive: -5.21%
Cc1oc(-c2ccccc2)nc1CNC(=O)Nc1ccc(F)cc1,"inconclusive: 3.98 µM [inhibitor, full curve, poor fit]",
Cc1nc(N2CCCC2)c2c(C(=O)Nc3cccc(Cl)c3)c(C)oc2n1,"inconclusive: 56.2 µM [inhibitor, partial curve, poor fit]",
CC(NC(=O)c1ccc2c(c1)N(Cc1cccc(F)c1)C(=O)c1ccccc1S2)c1ccccc1 (centres undefined),"inconclusive: 63.1 µM [inhibitor, partial curve, poor fit]",
Cc1[nH]nc2c1C1(CCC(c3ccccc3)CC1)C(C#N)=C(N)O2 (centres undefined),"inconclusive: 89.1 µM [inhibitor, partial curve, poor fit]",
CCc1nc(CNCc2cccc(NC(=O)c3ccc(F)cc3)c2)cs1,,inactive: 2.35%
OC(CNCC(c1ccco1)N1CCCCC1)c1ccccc1 (centres undefined),"inconclusive: 1.12 µM [inhibitor, full curve, poor fit]",
Cc1ccc(O)c(N=NC2=C(O)CC(C)(C)CC2=O)c1,"inconclusive: 50.1 µM [inhibitor, partial curve, poor fit]",
COc1cccc(CN2CCN(Cc3ccco3)CC2)c1,"inconclusive: 0.398 µM [inhibitor, full curve]",
CCOc1ccc(CN(C)CC(=O)NC(=O)NCc2ccccc2)cc1,,inactive: -1.78%
CN1CCc2c([nH]c3ccccc23)C12CCN(C(=O)c1cn(C)cn1)CC2,,inactive: 5.27%
Cc1cc(C)n(-c2nc3ccccc3nc2Nc2ccc(F)cc2C)n1,,inactive: 24%
COc1ccc(C(=O)N2CC[C@@H](CC(=O)O)[C@@H](CCN3CCC[C@H]3C(N)=O)C2)cc1,"inconclusive: 39.8 µM [inhibitor, full curve]",
C=CCN1CCN(C(=O)c2c(C)oc3c2CN(Cc2ccc(F)cc2)CC3)CC1,"inconclusive: 28.2 µM [inhibitor, full curve]",
